According to article PMC7545994:
Where two headings read alike, the source gives them in different places. No constants are given. Whether binding was seen depends on the method and setting. Binding seen in cells or lysates may run through a third protein. Some results given as binding are weak or reduced against the parent protein; the word gives no strength. For some assays here: Tags and fused reporters may be left off the sequences shown.

The chains behind the UniProt entries cited, without tags or fusion partners. Where a name states a change or a piece, a line headed by the entry shows the natural chain unless it says otherwise. Residues count along the entry.
UniProt P10909, residues 23-449: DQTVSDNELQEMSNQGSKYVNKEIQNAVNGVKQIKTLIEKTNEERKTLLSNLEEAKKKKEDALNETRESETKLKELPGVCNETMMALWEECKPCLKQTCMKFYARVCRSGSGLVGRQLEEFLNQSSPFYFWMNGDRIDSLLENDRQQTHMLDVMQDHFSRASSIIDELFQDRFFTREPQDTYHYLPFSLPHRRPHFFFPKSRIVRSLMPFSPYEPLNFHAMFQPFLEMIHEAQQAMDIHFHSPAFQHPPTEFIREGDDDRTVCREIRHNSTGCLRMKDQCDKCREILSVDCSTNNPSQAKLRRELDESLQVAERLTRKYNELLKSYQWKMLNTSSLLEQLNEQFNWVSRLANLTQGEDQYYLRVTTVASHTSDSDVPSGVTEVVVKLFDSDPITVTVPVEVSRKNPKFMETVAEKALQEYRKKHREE

Experiments:
[1] = molecular target: T1, TGFBR1-myc mutant deleted of the 123-218aa region (UniProt P36897); test: co-IP; 293T cells co-transfected with CLU-3×Flag and TGFBR1-myc (or its mutant) for 24 h; IP with Flag or with myc antibody, immunoblot with Flag and Myc tag antibodies
T1 sequence: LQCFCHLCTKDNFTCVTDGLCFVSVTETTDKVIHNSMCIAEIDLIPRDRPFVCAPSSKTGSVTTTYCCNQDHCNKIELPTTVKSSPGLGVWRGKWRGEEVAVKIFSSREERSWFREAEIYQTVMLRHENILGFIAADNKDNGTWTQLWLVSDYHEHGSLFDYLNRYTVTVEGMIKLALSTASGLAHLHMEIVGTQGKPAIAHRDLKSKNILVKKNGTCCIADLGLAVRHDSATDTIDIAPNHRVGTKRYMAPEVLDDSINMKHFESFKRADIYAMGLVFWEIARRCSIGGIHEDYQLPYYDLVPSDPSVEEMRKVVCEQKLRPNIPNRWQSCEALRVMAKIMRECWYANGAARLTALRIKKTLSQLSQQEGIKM

[2] = molecular target: T2, TGFBR1-myc (UniProt P36897); test: as above
T2 sequence: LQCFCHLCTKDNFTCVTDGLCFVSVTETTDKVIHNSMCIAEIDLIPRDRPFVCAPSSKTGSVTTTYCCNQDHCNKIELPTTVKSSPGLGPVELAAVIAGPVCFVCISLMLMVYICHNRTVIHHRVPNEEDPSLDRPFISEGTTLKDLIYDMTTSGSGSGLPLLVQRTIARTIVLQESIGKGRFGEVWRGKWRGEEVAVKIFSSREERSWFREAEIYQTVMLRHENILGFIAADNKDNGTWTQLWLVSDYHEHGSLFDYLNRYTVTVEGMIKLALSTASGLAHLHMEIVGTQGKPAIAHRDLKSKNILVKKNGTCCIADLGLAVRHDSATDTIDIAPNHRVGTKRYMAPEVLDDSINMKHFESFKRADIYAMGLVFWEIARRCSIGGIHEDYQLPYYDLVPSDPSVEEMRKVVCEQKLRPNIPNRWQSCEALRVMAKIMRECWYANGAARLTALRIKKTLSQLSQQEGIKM

[3] = molecular target: T3, TGFBR1 (endogenous, H460-tet-CLU cells) (human (endogenous in H460)) (UniProt P36897); test: co-IP; H460-tet-CLU cell lysate, endogenous proteins, with or without Dox-induced CLU; IP with TAK1 antibody, western blot with TGFBR1, TAK1 and CLU antibodies
T3 sequence: T2 sequence

[4] = molecular target: T2, TGFBR1-myc; test: co-IP; 293T-tet-CLU cells co-transfected with tagged proteins, with or without Dox-induced CLU; IP with Myc or Flag antibody, western blot with tag and CLU antibodies
[5] = molecular target: T4, TGFBR1-C-luc (pCAG-TGFBR1-C-luc) (UniProt P36897); test: split reporter; split luciferase halves (C-luc, Nluc) fused to the two proteins; 293T-tet-CLU cells, 250 ng of each plasmid in 24 well plate, 50 ng Renilla vector as transfection control, 1 μg/mL Dox to induce CLU; Dual Luminescent Kit
T4 sequence: T2 sequence

[6] = molecular target: T5, TAK1-Flag (UniProt O43318); test: co-IP; 293T-tet-CLU cells co-transfected with tagged proteins, with or without Dox-induced CLU; IP with Myc or Flag antibody, western blot with tag and CLU antibodies
T5 sequence: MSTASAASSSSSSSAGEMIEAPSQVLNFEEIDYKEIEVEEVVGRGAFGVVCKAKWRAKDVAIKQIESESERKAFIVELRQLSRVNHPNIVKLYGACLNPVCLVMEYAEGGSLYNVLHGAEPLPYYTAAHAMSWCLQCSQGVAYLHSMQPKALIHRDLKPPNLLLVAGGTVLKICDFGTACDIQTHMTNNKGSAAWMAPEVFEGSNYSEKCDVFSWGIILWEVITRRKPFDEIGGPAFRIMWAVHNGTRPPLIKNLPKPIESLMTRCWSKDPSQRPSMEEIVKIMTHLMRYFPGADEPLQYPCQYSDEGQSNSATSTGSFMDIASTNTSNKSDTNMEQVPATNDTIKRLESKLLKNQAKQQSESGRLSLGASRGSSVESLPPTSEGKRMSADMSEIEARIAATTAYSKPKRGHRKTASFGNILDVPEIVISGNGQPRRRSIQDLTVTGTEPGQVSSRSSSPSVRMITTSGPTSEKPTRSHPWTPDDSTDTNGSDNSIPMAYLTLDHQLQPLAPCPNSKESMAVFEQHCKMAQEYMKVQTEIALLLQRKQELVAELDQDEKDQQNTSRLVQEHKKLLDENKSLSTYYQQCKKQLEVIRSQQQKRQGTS

[7] = molecular target: CLU-3×Flag (Clusterin, full-length variant sCLU) (UniProt P10909); test: co-IP; 293T cells co-transfected with CLU-3×Flag and TGFBR1-myc (or its mutant) for 24 h; IP with Flag or with myc antibody, immunoblot with Flag and Myc tag antibodies
[8] = molecular target: T4, TGFBR1-C-luc (pCAG-TGFBR1-C-luc); test: split reporter; split luciferase halves (C-luc, Nluc) fused to the two proteins; 293T-tet-CLU cells, 250 ng of each plasmid in 24 well plate, 50 ng Renilla vector as transfection control, 1 μg/mL Dox to induce CLU; Dual Luminescent Kit; remark: listed apart in the source
[9] = molecular target: T6, TAK1-Luc (pCAG-TAK1-Luc) (UniProt O43318); test: as above
T6 sequence: T5 sequence

[10] = molecular target: T7, TAB2-Nluc (pCAG-TAB2-Nluc) (UniProt Q9NYJ8); test: as above
T7 sequence: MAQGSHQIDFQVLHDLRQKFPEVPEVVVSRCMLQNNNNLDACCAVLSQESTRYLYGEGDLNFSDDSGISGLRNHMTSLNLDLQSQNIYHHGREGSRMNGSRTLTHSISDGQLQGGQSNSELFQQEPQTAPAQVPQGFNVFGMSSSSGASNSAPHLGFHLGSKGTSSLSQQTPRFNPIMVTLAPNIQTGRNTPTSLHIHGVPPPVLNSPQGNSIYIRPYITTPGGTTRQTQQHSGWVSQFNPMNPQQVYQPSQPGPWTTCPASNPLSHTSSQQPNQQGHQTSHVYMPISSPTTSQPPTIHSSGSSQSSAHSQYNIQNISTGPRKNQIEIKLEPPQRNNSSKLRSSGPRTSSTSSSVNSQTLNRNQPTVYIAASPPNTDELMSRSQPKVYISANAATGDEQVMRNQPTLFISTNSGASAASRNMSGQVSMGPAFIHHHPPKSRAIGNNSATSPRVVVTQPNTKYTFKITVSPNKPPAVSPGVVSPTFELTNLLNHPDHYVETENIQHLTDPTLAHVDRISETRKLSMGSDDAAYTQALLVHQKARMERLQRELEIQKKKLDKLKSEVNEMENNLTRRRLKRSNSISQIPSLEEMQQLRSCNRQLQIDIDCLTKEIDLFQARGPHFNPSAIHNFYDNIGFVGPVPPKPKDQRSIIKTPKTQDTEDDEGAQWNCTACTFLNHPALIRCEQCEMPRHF

[11] = molecular target: T8, TAK1 (endogenous, H460-tet-CLU cells) (human (endogenous in H460)) (UniProt O43318); test: co-IP; H460-tet-CLU cell lysate, endogenous proteins, with or without Dox-induced CLU; IP with TAK1 antibody, western blot with TGFBR1, TAK1 and CLU antibodies
T8 sequence: T5 sequence

CLU-3×Flag (Clusterin, full-length variant sCLU) (from UniProt P10909-1 23-449)
binding [1]: binds weakly | binding [2]: binds

Clusterin (CLU), Dox-inducible, in 293T-tet-CLU and H460-tet-CLU cells (from UniProt P10909 23-449)
binding [3]: binds | binding [4]: binds | binding [5]: binds

B1: TGFBR1-myc (receptor, UniProt P36897 34-503)
chain: T2 sequence
binding [6]: binds | binding [7]: binds

B2: TAB2-Nluc (pCAG-TAB2-Nluc) (protein, UniProt Q9NYJ8 1-693)
chain: T7 sequence
binding [8]: binds

B3: TGFBR1-C-luc (pCAG-TGFBR1-C-luc) (receptor, UniProt P36897 34-503)
chain: T2 sequence
binding [9]: binds

B4: TAK1-CLUc (pCAG-TAK1-CLUc) (enzyme, UniProt O43318 1-606)
chain: T5 sequence
binding [10]: binds

B5: TGFBR1 (endogenous, H460-tet-CLU cells) (receptor, UniProt P36897 34-503)
chain: T2 sequence
binding [11]: binds
